Source: patent US20250163181A1
These are yes or no findings as the source states them, for the method shown. Some entries that bind do so weakly or less than the wild type.

Assays:
[1] = target: prothrombin variant S91A/Y93A (human) (UniProt P00734); assay: ELISA
[2] = target: prothrombin variant S91A/Y93A (human) (UniProt P00734); assay: ELISA, antigen immobilised on the plate, clone detected with anti-mouse IgG (gamma)-HRP, OD at 450 nm
[3] = target: prothrombin variant S91A/Y93A (human) (UniProt P00734); assay: ELISA, antigen coated on the plate, POmAb detected with anti-mouse IgG (gamma)-HRP and TMB, OD at 450 nm [panel C]
[4] = target: prothrombin variant S91A/Y93A (human) (UniProt P00734); assay: SPR
[5] = target: prothrombin variant S91A/Y93A (human) (UniProt P00734); assay: SPR, POmAb immobilised, prothrombin variant S91A/Y93A flowed at 0-2000 nM, reference-subtracted [panel H]
[6] = target: prothrombin variant S91A/Y93A (human) (UniProt P00734); assay: ELISA, immobilised antigen, POmAb titrated, OD at 450 nm [panel A]

binding [1]: binds
binding [2]: binds
binding [3]: binds
binding [4]: binds
binding [5]: binds
binding [6]: binds
B1: POmAb (Prothrombin Open monoclonal Antibody) (antibody, mouse IgG1, kappa, V domains shown)
VH: EVHLVESGGGLVKPGGSLKLSCAASGFTFSSYYMYWVRQTPEKRLEWVATISNGGIYTYYLDSVRGRFTISRDNAKNILYLQMSGLSSADSAIYYCTRDGERQGAMDYWGQGTSVTVSS
VL: QIVLTQSPAIMSVSLGERVTMTCIVSSSVSSTYLHWYQQKPGSSPKLWIYSSSNLASGVPTRFSGSGSGTSHSLTISSMEAEDAAAYYCQLYRRSPLTFGAGTKLELKR
